Sequences of proteins named here, by UniProt entry; tags and fusion partners are left off. A change or cut given only in a name is not applied to a line headed by its entry.
UniProt Q9BST9: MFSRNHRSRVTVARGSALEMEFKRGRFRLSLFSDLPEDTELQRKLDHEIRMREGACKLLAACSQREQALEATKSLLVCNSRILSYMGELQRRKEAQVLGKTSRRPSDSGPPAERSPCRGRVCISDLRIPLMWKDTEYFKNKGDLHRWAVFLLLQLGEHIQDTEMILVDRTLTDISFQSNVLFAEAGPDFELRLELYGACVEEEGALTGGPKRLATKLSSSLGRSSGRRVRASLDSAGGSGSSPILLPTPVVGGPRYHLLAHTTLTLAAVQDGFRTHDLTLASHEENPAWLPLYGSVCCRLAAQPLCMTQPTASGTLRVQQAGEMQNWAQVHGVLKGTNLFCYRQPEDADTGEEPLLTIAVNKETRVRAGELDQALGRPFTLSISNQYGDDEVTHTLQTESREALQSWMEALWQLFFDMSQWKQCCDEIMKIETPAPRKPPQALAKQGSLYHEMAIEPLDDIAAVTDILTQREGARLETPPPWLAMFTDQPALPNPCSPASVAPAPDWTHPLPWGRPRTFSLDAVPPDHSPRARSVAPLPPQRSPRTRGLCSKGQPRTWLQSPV
UniProt P61586: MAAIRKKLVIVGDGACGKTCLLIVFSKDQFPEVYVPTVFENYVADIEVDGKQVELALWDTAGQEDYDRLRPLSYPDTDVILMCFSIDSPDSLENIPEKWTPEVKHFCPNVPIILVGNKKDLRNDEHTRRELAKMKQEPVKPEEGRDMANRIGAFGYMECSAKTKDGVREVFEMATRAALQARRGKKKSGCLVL

In article PMC11519374:

Experiments:
[1] = target: GST-rhotekin-Rho binding domain (UniProt Q9BST9); test: pull-down; GST-RBD bound to glutathione Sepharose beads, mixed with lysates of starved cells for 2 h at 4°C; RhoA detected by Western blot; cells treated with Dox (TBC1D3C or TBC1D3C-RD2A), Noc, C3, Rhosin or with GEF-H1 knockout; only the target purified
[2] = target: T1, GEF-H1 (human (endogenous in U2OS and HEK293A)) (UniProt Q92974); test: co-IP; immunoprecipitation with GEF-H1 antibody from lysates of cells with or without induction of TBC1D3C or TBC1D3C-RD2A; immunoblot for Tctex, DIC and 14-3-3
T1 sequence: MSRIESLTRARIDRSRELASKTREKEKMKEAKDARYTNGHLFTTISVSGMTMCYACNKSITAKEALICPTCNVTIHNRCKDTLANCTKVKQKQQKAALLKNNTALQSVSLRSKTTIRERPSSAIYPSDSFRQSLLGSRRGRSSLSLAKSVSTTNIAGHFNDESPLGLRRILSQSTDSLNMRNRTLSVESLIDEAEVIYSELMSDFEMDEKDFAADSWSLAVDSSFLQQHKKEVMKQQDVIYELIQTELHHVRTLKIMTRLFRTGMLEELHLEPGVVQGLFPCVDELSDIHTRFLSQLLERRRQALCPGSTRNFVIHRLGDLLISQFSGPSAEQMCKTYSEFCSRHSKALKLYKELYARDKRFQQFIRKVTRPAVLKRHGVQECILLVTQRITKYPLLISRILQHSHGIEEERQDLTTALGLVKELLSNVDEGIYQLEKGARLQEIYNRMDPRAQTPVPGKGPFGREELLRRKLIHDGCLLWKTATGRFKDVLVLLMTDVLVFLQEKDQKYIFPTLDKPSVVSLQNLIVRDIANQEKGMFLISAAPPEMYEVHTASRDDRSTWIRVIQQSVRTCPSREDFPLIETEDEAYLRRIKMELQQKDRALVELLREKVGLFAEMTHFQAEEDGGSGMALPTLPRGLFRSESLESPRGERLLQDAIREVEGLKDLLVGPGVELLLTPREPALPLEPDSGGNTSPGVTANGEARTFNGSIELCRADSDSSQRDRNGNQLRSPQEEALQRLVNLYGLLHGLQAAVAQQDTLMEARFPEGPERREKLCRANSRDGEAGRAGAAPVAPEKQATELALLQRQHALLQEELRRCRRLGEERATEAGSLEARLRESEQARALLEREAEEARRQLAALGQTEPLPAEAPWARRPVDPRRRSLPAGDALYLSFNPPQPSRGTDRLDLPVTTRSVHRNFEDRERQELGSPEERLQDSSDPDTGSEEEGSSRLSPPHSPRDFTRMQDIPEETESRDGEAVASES

binding [1]	binding [2]	Substance
binds	–	RhoA (from UniProt P61586 1-193)
–	binds	dynein intermediate chain

These are yes or no findings as the source states them, for the method shown. In cells and extracts the contact can be indirect. Binding calls can cover weak binding; strength is not graded here.
